Taken from: PubChem BioAssay AID720505 (Drosophila RNAi Screening Center, 2013)
Aim: 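Genes needed for store-operated calcium entry in fly cells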 (primary screen). System: Drosophila S2R+ cells. Reagent: long dsRNA against Drosophila genes. Conditions: thapsigargin (2 µM) in calcium-free buffer to empty internal stores, then 2 mM calcium added back. Measured: 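Fluo-4 signal in 384-well plates read on a FLIPR after thapsigargin (2 µM, calcium-free) store depletion and 2 mM calcium add-back; unnormalised mean endpoint per well; screen run twice, selected wells retested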. Scale: calcium signal and retest calcium signal: higher = more calcium entry after store depletion. Rule for the call: 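About 1500 genes called as lowering calcium entry, by varying amounts, judged against per-plate control wells with STIM1 as positive and Rho1 as negative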. Meaning of the calls: active = called as lowering calcium entry; inactive = not called.
The deposit covers about 20,000 reagents; this is a random part of those that have a named target and a result. In the full data, about 2,100 (10%) are marked active. 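Raw plate signals without normalisation; calls rest on control-based scores that were not deposited; replicate 2 separates called from uncalled poorly.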 Entries without a mark were called inactive. Not stated in the record: the amount of reagent, the time to read-out.

For CG8026 [DRSC07055], what was measured?
calcium signal, replicate 1: 137; calcium signal, replicate 2: 98.2; retest calcium signal, replicate 1: 89.6; retest calcium signal, replicate 2: 115

For CG8026 [DRSC07056], what does the deposit list?
calcium signal, replicate 1: 170; calcium signal, replicate 2: 181

For synr (sayonara) [DRSC02369], how do the results read?
calcium signal, replicate 1: 177; calcium signal, replicate 2: 107

Which result is listed for Gr9a (Gustatory receptor 9a) [DRSC22506]?
calcium signal, replicate 1: 100; calcium signal, replicate 2: 168

With CG31637 [DRSC02270], how do the results read?
calcium signal, replicate 1: 117; calcium signal, replicate 2: 236

What is on record for CG31637 [DRSC03263]?
calcium signal, replicate 1: 119; calcium signal, replicate 2: 94.7

For CG2852 [DRSC04321], what was measured?
calcium signal, replicate 1: 83.9; calcium signal, replicate 2: 129

Which result is listed for CG7523 [DRSC16254]?
calcium signal, replicate 1: 217; calcium signal, replicate 2: 176

With cdm (cadmus) [DRSC16213], how do the results read?
calcium signal, replicate 1: 188; calcium signal, replicate 2: 217

With CG7381 [DRSC16238], what was measured?
calcium signal, replicate 1: 97.6; calcium signal, replicate 2: 163

How did the screen score SmydA-5 (SET and MYND domain containing, arthropod-specific, member 5) [DRSC04867]?
calcium signal, replicate 1: 164; calcium signal, replicate 2: 214

Which result is listed for Aps (Aps pyrophosphatase) [DRSC10629]?
calcium signal, replicate 1: 79.9; calcium signal, replicate 2: 130

How did the screen score CG7860 [DRSC20060]?
calcium signal, replicate 1: 152; calcium signal, replicate 2: 149

How did the screen score CR15280 (pseudo) [DRSC01953]?
calcium signal, replicate 1: 68.1 (active); calcium signal, replicate 2: 97.2

For CG18131 [DRSC00517], what was measured?
calcium signal, replicate 1: 153; calcium signal, replicate 2: 134

Which result is listed for CG18131 [DRSC22983]?
calcium signal, replicate 1: 125; calcium signal, replicate 2: 122

What is on record for CG6414 [DRSC18401]?
calcium signal, replicate 1: 184; calcium signal, replicate 2: 145

For CG5906 [DRSC10557], what does the deposit list?
calcium signal, replicate 1: 46.8 (active); calcium signal, replicate 2: 85.5

What did the screen give for Tmem43 (Transmembrane protein 43) [DRSC10964]?
calcium signal, replicate 1: 67.3 (active); calcium signal, replicate 2: 50.2

For Pfas (Phosphoribosylformylglycinamidine synthase) [DRSC03480], how do the results read?
calcium signal, replicate 1: 113; calcium signal, replicate 2: 145

With CG43307 [DRSC00893], what was measured?
calcium signal, replicate 1: 117; calcium signal, replicate 2: 149; retest calcium signal, replicate 1: 108; retest calcium signal, replicate 2: 119

With Prtl99C (Protamine-like 99C) [DRSC15049], how do the results read?
calcium signal, replicate 1: 204; calcium signal, replicate 2: 157

With CG15459 [DRSC20530], what does the deposit list?
calcium signal, replicate 1: 108; calcium signal, replicate 2: 87.5; retest calcium signal, replicate 1: 6483; retest calcium signal, replicate 2: 182

What did the screen give for CG15459 [DRSC21383]?
calcium signal, replicate 1: 151; calcium signal, replicate 2: 86.5

For Tsp (Thrombospondin) [DRSC02144], what does the deposit list?
calcium signal, replicate 1: 74.6; calcium signal, replicate 2: 140

With Tsp (Thrombospondin) [DRSC02145], how do the results read?
calcium signal, replicate 1: 123; calcium signal, replicate 2: 129

What is on record for CG12929 [DRSC06242]?
calcium signal, replicate 1: 111; calcium signal, replicate 2: 145

With sty (sprouty) [DRSC08737], what does the deposit list?
calcium signal, replicate 1: 68.8; calcium signal, replicate 2: 98.1

For sty (sprouty) [DRSC22994], what was measured?
calcium signal, replicate 1: 99.3; calcium signal, replicate 2: 140
